Sequences of proteins named here, by UniProt entry; tags and fusion partners are left off. A change or cut given only in a name is not applied to a line headed by its entry.
UniProt P08047, whole entry: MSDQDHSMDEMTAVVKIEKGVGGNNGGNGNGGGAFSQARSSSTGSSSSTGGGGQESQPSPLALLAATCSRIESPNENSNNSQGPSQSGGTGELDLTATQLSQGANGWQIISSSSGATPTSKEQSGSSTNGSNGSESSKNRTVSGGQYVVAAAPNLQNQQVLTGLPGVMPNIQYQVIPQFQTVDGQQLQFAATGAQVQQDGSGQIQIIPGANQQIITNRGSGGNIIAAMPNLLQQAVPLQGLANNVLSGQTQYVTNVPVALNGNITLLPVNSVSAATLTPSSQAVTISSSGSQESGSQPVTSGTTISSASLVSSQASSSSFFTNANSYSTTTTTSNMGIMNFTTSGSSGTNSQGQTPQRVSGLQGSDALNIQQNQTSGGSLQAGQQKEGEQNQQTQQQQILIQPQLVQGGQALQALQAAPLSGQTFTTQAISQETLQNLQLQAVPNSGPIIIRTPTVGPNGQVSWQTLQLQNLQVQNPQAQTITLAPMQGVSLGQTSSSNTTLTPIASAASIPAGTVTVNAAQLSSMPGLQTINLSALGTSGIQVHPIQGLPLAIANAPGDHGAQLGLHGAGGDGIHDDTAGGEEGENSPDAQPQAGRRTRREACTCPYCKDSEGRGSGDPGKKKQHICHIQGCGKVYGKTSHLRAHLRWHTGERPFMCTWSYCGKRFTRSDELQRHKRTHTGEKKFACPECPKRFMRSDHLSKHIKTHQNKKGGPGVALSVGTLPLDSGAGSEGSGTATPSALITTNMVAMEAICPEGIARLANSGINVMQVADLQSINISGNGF
UniProt Q02447: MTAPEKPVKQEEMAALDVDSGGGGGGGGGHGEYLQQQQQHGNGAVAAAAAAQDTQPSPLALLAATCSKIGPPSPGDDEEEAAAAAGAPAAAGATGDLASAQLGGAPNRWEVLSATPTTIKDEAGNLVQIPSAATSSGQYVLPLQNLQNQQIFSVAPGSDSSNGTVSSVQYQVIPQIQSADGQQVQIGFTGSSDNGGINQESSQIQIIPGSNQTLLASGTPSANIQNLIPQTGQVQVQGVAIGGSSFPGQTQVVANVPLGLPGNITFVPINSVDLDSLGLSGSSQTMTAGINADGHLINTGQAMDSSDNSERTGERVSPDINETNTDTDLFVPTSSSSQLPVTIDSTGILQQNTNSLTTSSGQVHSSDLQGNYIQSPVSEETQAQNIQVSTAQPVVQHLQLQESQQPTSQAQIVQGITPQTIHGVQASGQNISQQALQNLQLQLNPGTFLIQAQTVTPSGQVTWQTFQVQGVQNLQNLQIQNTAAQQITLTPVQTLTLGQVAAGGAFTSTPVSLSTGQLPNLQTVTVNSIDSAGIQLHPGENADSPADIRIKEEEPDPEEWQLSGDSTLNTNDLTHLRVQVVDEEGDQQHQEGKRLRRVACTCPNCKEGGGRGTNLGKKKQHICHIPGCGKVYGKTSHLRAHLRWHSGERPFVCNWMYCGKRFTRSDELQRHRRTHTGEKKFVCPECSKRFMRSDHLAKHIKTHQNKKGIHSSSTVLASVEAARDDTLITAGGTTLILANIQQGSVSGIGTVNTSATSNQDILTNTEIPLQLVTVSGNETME

In PMC2738963:

Tests used:
Sp1 [1] = molecular target: Sp1 (UniProt P08047); assay: EMSA supershift; conditions: 50 uM ZnCl2, +/- TSA no change; EMSA: 10 ug nuclear extract, 20 mM HEPES pH 7.3, 60 mM KCl, 1 mM MgCl2, 50 uM ZnCl2, 0.25 mM DTT, 0.1 mM EDTA, 10% glycerol, 10 ug BSA, 1-2 ug poly(dI-dC); protein in an extract
Sp3 [2] = molecular target: Sp3 (UniProt Q02447); assay: EMSA supershift; conditions: 50 uM ZnCl2, +/- TSA no change, antibody decreased complex; EMSA: 10 ug nuclear extract, 20 mM HEPES pH 7.3, 60 mM KCl, 1 mM MgCl2, 50 uM ZnCl2, 0.25 mM DTT, 0.1 mM EDTA, 10% glycerol, 10 ug BSA, 1-2 ug poly(dI-dC); protein in an extract
Sp1 [3] = molecular target: Sp1 (UniProt P08047); assay: competition with a labelled probe; conditions: 50 uM ZnCl2, EMSA: 10 ug nuclear extract, 20 mM HEPES pH 7.3, 60 mM KCl, 1 mM MgCl2, 50 uM ZnCl2, 0.25 mM DTT, 0.1 mM EDTA, 10% glycerol, 10 ug BSA, 1-2 ug poly(dI-dC), protein in an extract, label: none (competitor)
Sp3 [4] = molecular target: Sp3 (UniProt Q02447); assay: competition with a labelled probe; conditions: 50 uM ZnCl2, EMSA: 10 ug nuclear extract, 20 mM HEPES pH 7.3, 60 mM KCl, 1 mM MgCl2, 50 uM ZnCl2, 0.25 mM DTT, 0.1 mM EDTA, 10% glycerol, 10 ug BSA, 1-2 ug poly(dI-dC), protein in an extract, label: none (competitor)
[5] = did not compete with GC box1 wt probe
[6] = did not compete with GC box2 wt probe
[7] = did not compete with GC box3 wt probe

Sequence	binding result (Sp1 [1])	binding result (Sp3 [2])	other results
GGAAAGGCTCTGGGCTGGGAAGGGGCGTGGCCGCGG (double strand) [GC box1 wt]	binds	binds	–
GGAAAGGCTCTGTTCTGGGAAGTTGCGTGTCCGCGT (double strand) [GC box1 mut]	–	–	binding result (Sp1 [3]; [5]): no binding; binding result (Sp3 [4]; [5]): no binding
TGGCCGCGGGCGGAGGGGCGTGGCCGCGG (double strand) [GC box2 wt]	binds	binds	–
TGGCCGCGGGCGGAGGGGCGTGGCCTCCTT (double strand) [GC box3 wt]	binds	binds	–
TGTCCGCGTTCGGAGTTGCGTTTCCGCGT (double strand) [GC box2 mut]	–	–	binding result (Sp1 [3]; [6]): no binding; binding result (Sp3 [4]; [6]): no binding
TTTCCGCGTTCGGAGTTGCGTTGCCTCCTT (double strand) [GC box3 mut]	–	–	binding result (Sp1 [3]; [7]): no binding; binding result (Sp3 [4]; [7]): no binding

The exact form of at least one protein or probe is not confirmed. At least one result comes from cells or an extract, where the contact may be indirect. For part of these data: Negatives hold for the conditions tested.
